Experimental data published in the supplement of paper PMC11438910.
This is one part of the list. The signal is at background level for most entries.

Assays:
Test in all cases: fluorescence intensity of antibody binding to polysaccharide-coupled beads; higher = stronger binding
[1] = molecular target: pneumococcal polysaccharide Pn33B
[2] = molecular target: pneumococcal polysaccharide Pn33C
[3] = molecular target: pneumococcal polysaccharide Pn33D
[4] = molecular target: pneumococcal polysaccharide Pn33F
[5] = molecular target: pneumococcal polysaccharide Pn34
[6] = molecular target: pneumococcal polysaccharide Pn35A
[7] = molecular target: pneumococcal polysaccharide Pn35B
[8] = molecular target: pneumococcal polysaccharide Pn35C
[9] = molecular target: pneumococcal polysaccharide Pn35F
[10] = molecular target: pneumococcal polysaccharide Pn36
[11] = molecular target: pneumococcal polysaccharide Pn37
[12] = molecular target: pneumococcal polysaccharide Pn38
[13] = molecular target: pneumococcal polysaccharide Pn39
[14] = molecular target: pneumococcal polysaccharide Pn4
[15] = molecular target: pneumococcal polysaccharide Pn40
[16] = molecular target: pneumococcal polysaccharide Pn41A
[17] = molecular target: pneumococcal polysaccharide Pn41F
[18] = molecular target: pneumococcal polysaccharide Pn42
[19] = molecular target: pneumococcal polysaccharide Pn43
[20] = molecular target: pneumococcal polysaccharide Pn44
[21] = molecular target: pneumococcal polysaccharide Pn45
[22] = molecular target: pneumococcal polysaccharide Pn46
[23] = molecular target: pneumococcal polysaccharide Pn47A
[24] = antibody concentration 2.8593 ng/mL
[25] = antibody concentration 15.2894 ng/mL
[26] = antibody concentration 81.7561 ng/mL
[27] = antibody concentration 437.17 ng/mL
[28] = antibody concentration 2337.65 ng/mL
[29] = antibody concentration 12500 ng/mL
[30] = antibody concentration 0.1 ng/mL
[31] = antibody concentration 0.534724 ng/mL

B1: 4-127.2 (protein)
chain 1: QVQLQESGPGLVKPSETLSLTCAVSGYSVNSGHGWTWIRQSPGKGLEWIGYIGGGSGSSNYNPSLKSRVTISKDTSNNQLSLKLRSLTTADTAMYYCARRVPADRSGNDYWGQGVLVTVSS
chain 2: QSVLTQPPSVSGDPGQRVTISCTGSSSNIGDYYGYWYQQFPGTAPKLLIFDDNNRPSGISDRFSGSKAGTSASLTITGLQPGDEADYYCGAWDGSLNAHVFGSGTKLTVL
B1 was tested, and the fluorescence intensity [1, 24] was 16.5 MFI, the fluorescence intensity [1, 25] was 17 MFI and the fluorescence intensity [1, 26] was 18 MFI. The fluorescence intensity [1, 27] was 19 MFI, the fluorescence intensity [1, 28] was 19 MFI and the fluorescence intensity [1, 29] was 24 MFI. It also gave a fluorescence intensity [2, 30] of 19.5 MFI, a fluorescence intensity [2, 31] of 17.5 MFI and a fluorescence intensity [2, 24] of 17.8 MFI. It also gave a fluorescence intensity [2, 25] of 19 MFI, a fluorescence intensity [2, 26] of 18.5 MFI and a fluorescence intensity [2, 27] of 17.5 MFI. For the same binder, the fluorescence intensity [2, 28] was 21.2 MFI, the fluorescence intensity [2, 29] was 73.8 MFI and the fluorescence intensity [3, 30] was 15 MFI. For the same binder, the fluorescence intensity [3, 31] was 16 MFI, the fluorescence intensity [3, 24] was 16.5 MFI and the fluorescence intensity [3, 25] was 14.8 MFI. For the same binder, the fluorescence intensity [3, 26] was 16 MFI, the fluorescence intensity [3, 27] was 17 MFI and the fluorescence intensity [3, 28] was 17.5 MFI. For the same binder, the fluorescence intensity [3, 29] was 33 MFI, the fluorescence intensity [4, 30] was 12.2 MFI and the fluorescence intensity [4, 31] was 12.5 MFI. For the same binder, the fluorescence intensity [4, 24] was 13 MFI, the fluorescence intensity [4, 25] was 12.5 MFI and the fluorescence intensity [4, 26] was 13 MFI. For the same binder, the fluorescence intensity [4, 27] was 17.5 MFI, the fluorescence intensity [4, 28] was 39.8 MFI and the fluorescence intensity [4, 29] was 278 MFI. For the same binder, the fluorescence intensity [5, 30] was 13.5 MFI, the fluorescence intensity [5, 31] was 13 MFI and the fluorescence intensity [5, 24] was 12.2 MFI. It also gave a fluorescence intensity [5, 25] of 13.8 MFI, a fluorescence intensity [5, 26] of 13 MFI and a fluorescence intensity [5, 27] of 14.5 MFI. The fluorescence intensity [5, 28] was 14.5 MFI, the fluorescence intensity [5, 29] was 21.2 MFI and the fluorescence intensity [6, 30] was 16.5 MFI. For the same binder, the fluorescence intensity [6, 31] was 15.5 MFI, the fluorescence intensity [6, 24] was 16.5 MFI and the fluorescence intensity [6, 25] was 16 MFI. For the same binder, the fluorescence intensity [6, 26] was 16 MFI, the fluorescence intensity [6, 27] was 17 MFI and the fluorescence intensity [6, 28] was 24.2 MFI. The fluorescence intensity [6, 29] was 126 MFI, the fluorescence intensity [7, 30] was 17 MFI and the fluorescence intensity [7, 31] was 17 MFI. It also gave a fluorescence intensity [7, 24] of 19 MFI, a fluorescence intensity [7, 25] of 17.5 MFI and a fluorescence intensity [7, 26] of 18.5 MFI. The fluorescence intensity [7, 27] was 19.5 MFI, the fluorescence intensity [7, 28] was 22 MFI and the fluorescence intensity [7, 29] was 83.8 MFI. It also gave a fluorescence intensity [8, 30] of 19.5 MFI, a fluorescence intensity [8, 31] of 18.5 MFI and a fluorescence intensity [8, 24] of 19.5 MFI. It also gave a fluorescence intensity [8, 25] of 19 MFI, a fluorescence intensity [8, 26] of 20 MFI and a fluorescence intensity [8, 27] of 20.5 MFI. It also gave a fluorescence intensity [8, 28] of 20.5 MFI, a fluorescence intensity [8, 29] of 26 MFI and a fluorescence intensity [9, 30] of 18 MFI. For the same binder, the fluorescence intensity [9, 31] was 19 MFI, the fluorescence intensity [9, 24] was 19.5 MFI and the fluorescence intensity [9, 25] was 18 MFI. It also gave a fluorescence intensity [9, 26] of 18.5 MFI, a fluorescence intensity [9, 27] of 18.5 MFI and a fluorescence intensity [9, 28] of 22.5 MFI. It also gave a fluorescence intensity [9, 29] of 27.2 MFI, a fluorescence intensity [10, 30] of 14.5 MFI and a fluorescence intensity [10, 31] of 14.8 MFI. It also gave a fluorescence intensity [10, 24] of 15 MFI, a fluorescence intensity [10, 25] of 14.5 MFI and a fluorescence intensity [10, 26] of 13.5 MFI. It also gave a fluorescence intensity [10, 27] of 17 MFI, a fluorescence intensity [10, 28] of 23 MFI and a fluorescence intensity [10, 29] of 108 MFI. The fluorescence intensity [11, 30] was 23.8 MFI, the fluorescence intensity [11, 31] was 25 MFI and the fluorescence intensity [11, 24] was 24.5 MFI. It also gave a fluorescence intensity [11, 25] of 25.5 MFI, a fluorescence intensity [11, 26] of 25 MFI and a fluorescence intensity [11, 27] of 32 MFI. The fluorescence intensity [11, 28] was 78.5 MFI, the fluorescence intensity [11, 29] was 397 MFI and the fluorescence intensity [12, 30] was 26.5 MFI. It also gave a fluorescence intensity [12, 31] of 25 MFI, a fluorescence intensity [12, 24] of 26.5 MFI and a fluorescence intensity [12, 25] of 24.2 MFI. For the same binder, the fluorescence intensity [12, 26] was 26.2 MFI, the fluorescence intensity [12, 27] was 24.8 MFI and the fluorescence intensity [12, 28] was 28 MFI. The fluorescence intensity [12, 29] was 42.5 MFI, the fluorescence intensity [13, 30] was 17.2 MFI and the fluorescence intensity [13, 31] was 16.8 MFI. For the same binder, the fluorescence intensity [13, 24] was 16.5 MFI, the fluorescence intensity [13, 25] was 18 MFI and the fluorescence intensity [13, 26] was 18 MFI. It also gave a fluorescence intensity [13, 27] of 19 MFI, a fluorescence intensity [13, 28] of 24 MFI and a fluorescence intensity [13, 29] of 86.5 MFI. For the same binder, the fluorescence intensity [14, 30] was 18.8 MFI, the fluorescence intensity [14, 31] was 17 MFI and the fluorescence intensity [14, 24] was 20 MFI. The fluorescence intensity [14, 25] was 17 MFI, the fluorescence intensity [14, 26] was 17 MFI and the fluorescence intensity [14, 27] was 24 MFI. It also gave a fluorescence intensity [14, 28] of 28 MFI, a fluorescence intensity [14, 29] of 35 MFI and a fluorescence intensity [15, 30] of 16 MFI. The fluorescence intensity [15, 31] was 17 MFI, the fluorescence intensity [15, 24] was 17.2 MFI and the fluorescence intensity [15, 25] was 14.5 MFI. It also gave a fluorescence intensity [15, 26] of 16.2 MFI, a fluorescence intensity [15, 27] of 18.5 MFI and a fluorescence intensity [15, 28] of 28 MFI. The fluorescence intensity [15, 29] was 162 MFI, the fluorescence intensity [16, 30] was 21.5 MFI and the fluorescence intensity [16, 31] was 22.5 MFI. It also gave a fluorescence intensity [16, 24] of 21.5 MFI, a fluorescence intensity [16, 25] of 22 MFI and a fluorescence intensity [16, 26] of 21.8 MFI. It also gave a fluorescence intensity [16, 27] of 24 MFI, a fluorescence intensity [16, 28] of 23 MFI and a fluorescence intensity [16, 29] of 30 MFI. The fluorescence intensity [17, 30] was 13.5 MFI, the fluorescence intensity [17, 31] was 12.5 MFI and the fluorescence intensity [17, 24] was 11.5 MFI. For the same binder, the fluorescence intensity [17, 25] was 12.5 MFI, the fluorescence intensity [17, 26] was 13 MFI and the fluorescence intensity [17, 27] was 14 MFI. It also gave a fluorescence intensity [17, 28] of 14 MFI, a fluorescence intensity [17, 29] of 21 MFI and a fluorescence intensity [18, 30] of 10.8 MFI. For the same binder, the fluorescence intensity [18, 31] was 12 MFI, the fluorescence intensity [18, 24] was 10 MFI and the fluorescence intensity [18, 25] was 11 MFI. The fluorescence intensity [18, 26] was 12 MFI, the fluorescence intensity [18, 27] was 12.5 MFI and the fluorescence intensity [18, 28] was 13.5 MFI. It also gave a fluorescence intensity [18, 29] of 56.5 MFI, a fluorescence intensity [19, 30] of 15.5 MFI and a fluorescence intensity [19, 31] of 14.5 MFI. The fluorescence intensity [19, 24] was 14.5 MFI, the fluorescence intensity [19, 25] was 15 MFI and the fluorescence intensity [19, 26] was 14.5 MFI. For the same binder, the fluorescence intensity [19, 27] was 21.2 MFI, the fluorescence intensity [19, 28] was 45.5 MFI and the fluorescence intensity [19, 29] was 336 MFI. It also gave a fluorescence intensity [20, 30] of 24 MFI, a fluorescence intensity [20, 31] of 23.2 MFI and a fluorescence intensity [20, 24] of 23.5 MFI. It also gave a fluorescence intensity [20, 25] of 25 MFI, a fluorescence intensity [20, 26] of 24.8 MFI and a fluorescence intensity [20, 27] of 25.8 MFI. For the same binder, the fluorescence intensity [20, 28] was 27 MFI, the fluorescence intensity [20, 29] was 32.5 MFI and the fluorescence intensity [21, 30] was 11 MFI. For the same binder, the fluorescence intensity [21, 31] was 10 MFI, the fluorescence intensity [21, 24] was 10.5 MFI and the fluorescence intensity [21, 25] was 10.5 MFI. For the same binder, the fluorescence intensity [21, 26] was 11 MFI, the fluorescence intensity [21, 27] was 13.5 MFI and the fluorescence intensity [21, 28] was 12.5 MFI. The fluorescence intensity [21, 29] was 16.5 MFI, the fluorescence intensity [22, 30] was 22.5 MFI and the fluorescence intensity [22, 31] was 22 MFI. For the same binder, the fluorescence intensity [22, 24] was 23.5 MFI, the fluorescence intensity [22, 25] was 22.5 MFI and the fluorescence intensity [22, 26] was 22 MFI. For the same binder, the fluorescence intensity [22, 27] was 24 MFI, the fluorescence intensity [22, 28] was 31 MFI and the fluorescence intensity [22, 29] was 106 MFI. It also gave a fluorescence intensity [23, 30] of 15.8 MFI, a fluorescence intensity [23, 31] of 15 MFI and a fluorescence intensity [23, 24] of 14.8 MFI. It also gave a fluorescence intensity [23, 25] of 15.5 MFI, a fluorescence intensity [23, 26] of 15 MFI and a fluorescence intensity [23, 27] of 15.5 MFI.
